The results in this text go back to patent publication US20250195488A1, “MEDICINE CONTAINING VITAMIN D DERIVATIVE OR PHARMACEUTICALLY ACCEPTABLE SALT OR SOLVATE THEREOF, USED IN COMBINATION WITH IMMUNOMODULATORY SUBSTANCE” (TEEJIN PHARMA LIMITED, priority 2022, published 2025).

The data set deals with rat oligodendrocyte progenitor cells. Put plainly: Promotive activity of rat oligodendrocyte progenitor cell differentiation-2 (immunostaining of MBP). Format: cell-based. The conditions noted are these: t-test vs DMSO group. The procedure: The promotive activity of oligodendrocyte progenitor cell (OPC) differentiation of the vitamin D derivatives was evaluated by immunostaining of MBP.
Subsequently, oligodendrocyte progenitor cell separation medium was added to the flask, and the mixture was similarly shaken for about 22 hours (37° C., 200 rpm), and the supernatant was collected to prepare oligodendrocyte progenitor cells.

The amount applied is not stated for every result.

Turning to `C=C1[C@H](O)CC(=C/C=C2\CCC[C@]3(C)[C@@H]([C@H](C)CN4CCCC(O)(C(F)F)C4)CC[C@@H]23)C[C@H]1O` (single isomer, unassigned) [Compound C036a], the Significant difference result (Test 2) was “**** (<0.0001)”.
`C=C1[C@H](O)CC(=C/C=C2\CCC[C@]3(C)[C@@H]([C@H](C)CN4CCN(C)C[C@@H]4C)CC[C@@H]23)C[C@H]1O` [Compound H011, (1R,3R)-5-(2-((1R,3aS,7aR,E)-1-((S)-1-((S)-2,4-dimethylpiperazin-1-yl)propan-2-yl)-7a-methyloctahydro-4H-inden-4-ylidene)ethylidene)-2-methylenecyclohexane-1,3-diol]: the Significant difference entry (Test 5) is listed as “*** (<0.001)”.
Take `C[C@H](CN1CC[C@@H](C(F)F)C1)[C@H]1CC[C@H]2/C(=C/C=C3C[C@@H](O)C[C@H](O)C3)CCC[C@]12C` [Compound B026, (1R,3R)-5-(2-((1R,3aS,7aR,E)-1-((S)-1-((R)-3-(difluoromethyl)pyrrolidin-1l-yl)propan-2-yl)-7a-methyloctahydro-4H-inden-4-ylidene)ethylidene)cyclohexane-1,3-diol]: the Significant difference entry (Test 1) is “**** (<0.0001)”.
On to `C[C@H](CN1CCN(C)C[C@H]1C)[C@H]1CC[C@H]2/C(=C/C=C3C[C@@H](O)C[C@H](O)C3)CCC[C@]12C` [Compound G012, (1R,3R)-5-(2-((1R,3aS,7aR,E)-1-((S)-1-((R)-2,4-dimethylpiperazin-1-yl)propan-2-yl)-7a-methyloctahydro-4H-inden-4-ylidene)ethylidene)cyclohexane-1,3-diol], for which, where the note is “Test 5”, the Significant difference entry is “* (<0.05)”.
As to `COC(C)(C)[C@H]1CCCN1C[C@@H](C)[C@H]1CC[C@H]2/C(=C/C=C3C[C@@H](O)C[C@H](O)C3)CCC[C@]12C` [Compound G015, (1R,3R)-5-(2-((1R,3aS,7aR,E)-1-((S)-1-((R)-2-(2-methoxypropan-2-yl)pyrrolidin-1-yl)propan-2-yl)-7a-methyloctahydro-4H-inden-4-ylidene)ethylidene)cyclohexane-1,3-diol], the Significant difference entry (Test 6) is listed as “**** (<0.0001)”.
In the case of `C=C1[C@H](O)CC(=C/C=C2\CCC[C@]3(C)[C@@H]([C@H](C)CN4CCC[C@@H]4C(C)(C)OC)CC[C@@H]23)C[C@H]1O` [Compound H015, (1R,3R)-5-(2-((1R,3aS,7aR,E)-1-((S)-1-((R)-2-(2-methoxypropan-2-yl)pyrrolidin-1-yl)propan-2-yl)-7a-methyloctahydro-4H-inden-4-ylidene)ethylidene)-2-methylenecyclohexane-1,3-diol], the Significant difference result (Test 8) was “**** (<0.0001)”.
Turning to `C=C1/C(=C\C=C2/CCC[C@]3(C)[C@@H]([C@H](C)CN4CCC[C@H]4C(C)(C)OC)CC[C@@H]23)C[C@@H](O)C[C@@H]1O` [Compound F016, (1R,3S,Z)-5-(2-((1R,3aS,7aR,E)-1-((S)-1-((S)-2-(2-methoxypropan-2-yl)pyrrolidin-1-yl)propan-2-yl)-7a-methyloctahydro-4H-inden-4-ylidene)ethylidene)-4-methylenecyclohexane-1,3-diol], the Significant difference entry (Test 8) was “*** (<0.001)”.
With `C=C1[C@H](O)CC(=C/C=C2\CCC[C@]3(C)[C@@H]([C@H](C)CN4CCCCC4(C)C)CC[C@@H]23)C[C@H]1O` [Compound H003, (1R,3R)-5-(2-((1R,3aS,7aR,E)-1-((S)-1-(2,2-dimethylpiperidin-1-yl)propan-2-yl)-7a-methyloctahydro-4H-inden-4-ylidene)ethylidene)-2-methylenecyclohexane-1,3-diol], the Significant difference result (Test 9) is recorded as “*** (<0.001)”.
For the molecule `C=C1[C@H](O)CC(=C/C=C2\CCC[C@]3(C)[C@@H]([C@H](C)CN4CCC(C(C)(F)F)CC4)CC[C@@H]23)C[C@H]1O` [Compound C055, (1R,3R)-5-(2-((1R,3aS,7aR,E)-1-((S)-1-(4-(1,1-difluoroethyl)piperidin-1-yl)propan-2-yl)-7a-methyloctahydro-4H-inden-4-ylidene)ethylidene)-2-methylenecyclohexane-1,3-diol], the Significant difference result (Test 2) is “**** (<0.0001)”.
`C[C@H](CN1CC[C@@H](CCC(F)F)C1)[C@H]1CC[C@H]2/C(=C/C=C3C[C@@H](O)C[C@H](O)C3)CCC[C@]12C` [Compound B064, (1R,3R)-5-(2-((1R,3aS,7aR,E)-1-((S)-1-((R)-3-(3,3-difluoropropyl)pyrrolidin-1-yl)propan-2-yl)-7a-methyloctahydro-4H-inden-4-ylidene)ethylidene)cyclohexane-1,3-diol]: the Significant difference result (Test 2) was “**** (<0.0001)”.
As to `C[C@H](CN1CCC[C@H]1C(C)(C)O)[C@H]1CC[C@H]2/C(=C/C=C3C[C@@H](O)C[C@H](O)C3)CCC[C@]12C` [Compound G014, (1R,3R)-5-(2-((1R,3aS,7aR,E)-1-((S)-1-((S)-2-(2-hydroxypropan-2-yl)pyrrolidin-1-yl)propan-2-yl)-7a-methyloctahydro-4H-inden-4-ylidene)ethylidene)cyclohexane-1,3-diol], the Significant difference result (Test 6) is recorded as “**** (<0.0001)”.
In the case of `C[C@H](CN1CC[C@@H](OCC(F)F)C1)[C@H]1CC[C@H]2/C(=C/C=C3C[C@@H](O)C[C@H](O)C3)CCC[C@]12C` [Compound B058, (1R,3R)-5-(2-((1R,3aS,7aR,E)-1-((S)-1-((R)-3-(2,2-difluoroethoxy)pyrrolidin-1-yl)propan-2-yl)-7a-methyloctahydro-4H-inden-4-ylidene)ethylidene)cyclohexane-1,3-diol], the Significant difference entry (Test 2) was “**** (<0.0001)”.
For `C[C@H](CN1CCOC2(CC2)C1)[C@H]1CC[C@H]2/C(=C/C=C3C[C@@H](O)C[C@H](O)C3)CCC[C@]12C` [Compound D019, (1R,3R)-5-(2-((1R,3aS,7aR,E)-1-((S)-1-(4-oxa-7-azaspiro[2.5]octan-7-yl)propan-2-yl)-7a-methyloctahydro-4H-inden-4-ylidene)ethylidene)cyclohexane-1,3-diol], under “Test 2”, the Significant difference entry is “**** (<0.0001)”.
For `C=C1/C(=C\C=C2/CCC[C@]3(C)[C@@H]([C@H](C)CN4CCCC[C@H]4C)CC[C@@H]23)C[C@@H](O)C[C@@H]1O` [Compound F002, (1R,3S,Z)-5-(2-((1R,3aS,7aR,E)-7a-methyl-1-((S)-1-((R)-2-methylpiperidin-1-yl)propan-2-yl)octahydro-4H-inden-4-ylidene)ethylidene)-4-methylenecyclohexane-1,3-diol], under “Test 7”, the Significant difference entry is “** (<0.01)”.
Consider `C=C1/C(=C\C=C2/CCC[C@]3(C)[C@@H]([C@H](C)CN4CC[C@H](C(C)(F)F)C4)CC[C@@H]23)C[C@@H](O)[C@H](C)[C@@H]1O` [Compound B029, (1R,2S,3S,Z)-5-(2-((1R,3aS,7aR,E)-1-((S)-1-((S)-3-(1,1-difluoroethyl)pyrrolidin-1-yl)propan-2-yl)-7a-methyloctahydro-4H-inden-4-ylidene)ethylidene)-2-methyl-4-methylenecyclohexane-1,3-diol], for which the Significant difference entry (Test 1) is reported as “**** (<0.0001)”.
Take `C[C@H](CN1CCOC[C@H]1C)[C@H]1CC[C@H]2/C(=C/C=C3C[C@@H](O)C[C@H](O)C3)CCC[C@]12C` [Compound G005, (1R,3R)-5-(2-((1R,3aS,7aR,E)-7a-methyl-1-((S)-1-((R)-3-methylmorpholino)propan-2-yl)octahydro-4H-inden-4-ylidene)ethylidene)cyclohexane-1,3-diol]: the Significant difference entry (Test 3) is “**** (<0.0001)”.
